# From patent publication US20220193191A1 (AstraZeneca / MedImmune, published 2022)
# B1: PRS-060/AZD1402 (anti-IL-4 receptor alpha human tear lipocalin mutein) (designed binder)
# chain: ASDEEIQDVSGTWYLKAMTVDSRCPRAVYNSVTPMTLTTLEGGNLEAKFTAQRKGRWQKYKLVLEKTDEPGKYTASGGRHVAYIIRSHVKDHYIFHSEGLCPGQPVPGVWLVGRDPKNNLEALEDFEKAAGARGLSTESILIPRQSETSSPGSD
# Columns and labels:
# [1] = target: T1, human interleukin-4 receptor alpha chain (IL-4Rα) (human, UniProt P24394 26-825); assay: cell-based or functional assay
# [2] = target: T1, human interleukin-4 receptor alpha …; assay: cell-based or functional assay; remark: listed apart in the source
binder,measurement,setting,value
B1,"Eotaxin-3 IC50 (nM): inhibition of IL-4 induced eotaxin-3 release, human whole blood in vitro, 8 ng/mL IL-4 for 24 hours, ELISA",[1],2.1 nM
same,"MDC IC50 (nM): inhibition of IL-4 induced MDC release, human whole blood in vitro, 8 ng/mL IL-4 for 24 hours, ELISA",[1],2 nM
same,"TARC IC50 (nM): inhibition of IL-4 induced TARC release, human whole blood in vitro, 8 ng/mL IL-4 for 24 hours, ELISA",[1],1.3 nM
same,"pSTAT IC50 (nM): inhibition of IL-4 stimulated STAT6 phosphorylation in CD3+ T cells, human whole blood in vitro, 8 ng/mL IL-4 for 15 minutes, FACS",[1],1.3 nM
same,"IC50 of ex vivo inhibition of IL-4 stimulated STAT6 phosphorylation in CD3+ T cells (PK/PD analysis, whole blood of healthy subjects after single inhaled doses, 10 ng/ml human IL-4 for 15 minutes)",[2],0.35 nM
